Measurements as given in PMC5996148.
Several values for one entry are separate records, joined by “and”; a condition that tells them apart may be missing. Equal entries are not always repeated. The list shows a part of the results. For some assays here: Construct or isoform of the protein are uncertain.

Amino acid sequences for entries named in this document (tags omitted). A change or cut given only in a name is not applied to a line headed by its entry.
UniProt Q9BRP8: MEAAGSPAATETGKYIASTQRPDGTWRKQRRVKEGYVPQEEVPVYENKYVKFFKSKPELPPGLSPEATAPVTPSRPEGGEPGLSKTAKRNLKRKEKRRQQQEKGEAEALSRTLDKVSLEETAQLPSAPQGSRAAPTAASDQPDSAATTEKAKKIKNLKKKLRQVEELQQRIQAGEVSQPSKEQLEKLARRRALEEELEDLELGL

Legend:
Experiment in all cases: protein microarray (ProtoArray v5.0), streptavidin-Alexa Fluor 647
Details in all cases: 3'-biotin; 20 mM Tris (pH 7.5), 5 mM MgCl2, 100 mM KCl, 0.1% Tween-20, A/T-rich and random oligonucleotide blockers; temperature not stated; high values mean tight binding
[1] = tested on: Visinin-like protein 1 (human)
[2] = tested on: Voltage-dependent L-type calcium channel subunit beta-1 (human)
[3] = tested on: WAS protein family homolog 1 (human)
[4] = biological target: T1, WBP2 (UniProt Q969T9)
T1 sequence: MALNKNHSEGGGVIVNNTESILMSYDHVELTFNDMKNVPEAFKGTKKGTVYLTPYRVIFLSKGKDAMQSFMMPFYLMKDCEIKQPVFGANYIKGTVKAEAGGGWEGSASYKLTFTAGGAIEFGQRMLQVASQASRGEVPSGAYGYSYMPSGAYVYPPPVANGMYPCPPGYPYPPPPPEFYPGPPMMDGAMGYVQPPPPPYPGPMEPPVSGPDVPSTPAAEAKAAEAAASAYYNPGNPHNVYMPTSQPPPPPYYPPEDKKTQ

[5] = tested on: WD repeat-containing protein 55 (human)
[6] = tested on: WDR1 (human)
[7] = biological target: T2, WDR18 (UniProt Q9BV38)
T2 sequence: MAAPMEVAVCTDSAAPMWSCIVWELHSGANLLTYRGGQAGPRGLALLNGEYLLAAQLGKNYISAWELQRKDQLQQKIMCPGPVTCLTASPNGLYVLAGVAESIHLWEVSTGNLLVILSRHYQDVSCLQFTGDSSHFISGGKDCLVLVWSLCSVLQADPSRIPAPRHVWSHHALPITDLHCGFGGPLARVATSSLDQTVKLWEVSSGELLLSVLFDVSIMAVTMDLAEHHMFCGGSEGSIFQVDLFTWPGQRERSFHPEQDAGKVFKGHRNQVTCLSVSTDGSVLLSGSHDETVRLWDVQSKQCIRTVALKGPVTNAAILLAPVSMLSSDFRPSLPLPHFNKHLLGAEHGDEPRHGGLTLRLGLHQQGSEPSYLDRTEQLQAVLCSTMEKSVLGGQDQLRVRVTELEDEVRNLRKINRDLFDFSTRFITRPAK

[8] = tested on: WDR24 (human)
[9] = tested on: WDR34 (human)
[10] = tested on: WDR4 (human)
[11] = biological target: T3, WDR57 (UniProt Q96DI7)
T3 sequence: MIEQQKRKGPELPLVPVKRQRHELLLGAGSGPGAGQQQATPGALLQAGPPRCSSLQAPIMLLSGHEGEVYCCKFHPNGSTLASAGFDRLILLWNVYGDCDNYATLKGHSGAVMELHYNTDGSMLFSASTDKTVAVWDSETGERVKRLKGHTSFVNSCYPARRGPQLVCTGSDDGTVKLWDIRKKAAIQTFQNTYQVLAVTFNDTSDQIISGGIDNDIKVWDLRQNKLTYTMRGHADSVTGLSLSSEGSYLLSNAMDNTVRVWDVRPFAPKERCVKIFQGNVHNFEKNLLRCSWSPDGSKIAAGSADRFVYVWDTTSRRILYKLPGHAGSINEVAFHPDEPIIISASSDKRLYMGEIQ

[12] = tested on: WFDC6 (human)
[13] = biological target: WIBG (UniProt Q9BRP8)
[14] = tested on: WTAP (human)
[15] = tested on: Wilms tumor-associated protein (human)
[16] = tested on: YIPF1 (human)
[17] = tested on: YKT6 (human)
[18] = tested on: YSK4 (human)
[19] = tested on: ZAP70 (human)
[20] = tested on: ZBED2 (human)

With “GGTGACAGGGGTATGGGGAGGGG [G4-2 biotinylated (Ct1)]” as the sequence, how does the binding signal [1] read?
Its binding signal is -0.384 z-score.

And the binding signal [2]?
Its binding signal is 3.48 z-score.

And the binding signal [3]?
Its binding signal is -0.4 z-score.

What about the binding signal [4] of the same sequence?
Its binding signal is -0.385 z-score.

What about the binding signal [5] of the same sequence?
The binding signal was -0.368 z-score.

What about the binding signal [6] of the same sequence?
The binding signal was -0.38 z-score.

And the binding signal [7]?
The binding signal was -0.386 z-score.

And the binding signal [8]?
The binding signal was -0.37 z-score.

And the binding signal [9]?
Its binding signal is -0.378 z-score.

What about the binding signal [10] of the same sequence?
The binding signal was -0.394 z-score.

And the binding signal [11]?
Its binding signal is 3.75 z-score.

And the binding signal [12]?
The binding signal was -0.397 z-score.

And the binding signal [13]?
Its binding signal is 4.08 z-score.

What about the binding signal [14] of the same sequence?
The binding signal was -0.396 z-score and -0.379 z-score.

And the binding signal [15]?
Its binding signal is 4.03 z-score.

What about the binding signal [16] of the same sequence?
The binding signal was -0.369 z-score.

What about the binding signal [17] of the same sequence?
Its binding signal is -0.401 z-score.

And the binding signal [18]?
Its binding signal is -0.372 z-score.

And the binding signal [19]?
The binding signal was -0.361 z-score.

What about the binding signal [20] of the same sequence?
Its binding signal is -0.38 z-score.
